Some of the results follow. Shown are side measurements of this screen, not its main read-out; they come without a call. The list favours compounds with an active or inconclusive main result. Words in brackets tell the shape of the fitted curve; partial curves, single points and poor fits give uncertain potencies.
Test: qHTS Assay for Lipid Storage Modulators in Drosophila S3 Cells;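 for cell number change: cells counted by Cell Tracker Red CMTPX staining in the red channel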
Details: BODIPY lipid droplet fluorescence, 18-24 h; for cell number change: measured here: cell count max response, cells fed with added oleic acid
Summary of the method: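 Laser-scanning cytometry quantifies lipid droplet accumulation (500–530 nm total intensity; droplet/cell object ratio) in oleic acid-fed (400 uM added) Drosophila S3 cells treated with a concentration series. 20 uM Triacsin C defined 100% inhibition.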

[1] = measured here: lipid fluorescence (Fed channel) AC50, cells fed with added oleic acid
[2] = measured here: cell number channel AC50, cells fed with added oleic acid

| Structure (SMILES) | cell number change [%] | AC50 [1] | AC50 [2] |
| --- | --- | --- | --- |
| COc1ccc(OC)c(-c2cc(C(=O)Nc3c(C)nn(Cc4ccccc4C)c3C)no2)c1 | -3.91 | 0.58 µM [rising, full curve, poor fit] |  |
| COc1ccc2c(c1)C=C(C(=O)OCc1cccnc1)CO2 | -4.76 | 0.116 µM [falling, full curve, poor fit] |  |
| COc1ccccc1CNC(=O)c1c(-c2ccccc2Cl)noc1C | 4.72 | 11.6 µM [falling, partial curve] |  |
| COC(=O)CN1C(=O)[C@H]2[C@@H](c3ccc(C)o3)N3C(=O)CN(CC4CC4)C(=O)[C@@]3(C)[C@H]2C1=O | 30.7 | 6.51 µM [falling, single point] | 3.66 µM [rising, partial curve, poor fit] |
| CCn1cc(-c2cc(C(=O)O)c3ccccc3n2)cn1 | 8.35 |  | 0.517 µM [falling, single point] |
| O=C(CCC(=O)N1CCN(c2ccccn2)CC1)Nc1nnc(C2CCCCC2)s1 | -3.39 | 0.0058 µM [falling, full curve, poor fit] |  |
| COC(=O)CSc1nnc(-c2ccc(OC)c(OC)c2)o1 | 24.6 |  |  |
| Cc1cc(=O)oc2c(C(=O)c3ccccc3)c(OCC(N)=O)ccc12 | 8.45 | 2.59 µM [rising, partial curve] | 2.59 µM [rising, partial curve, poor fit] |
| CC1=CC(C)(C)Nc2ccc(OC(=O)c3cccnc3)cc21 | 3.93 | 4.61 µM [falling, single point] | 6.51 µM [falling, single point] |
| C(=N\NC1=Nc2cccc3cccc1c23)/c1ccccc1 | 1.73 | 3.26 µM [falling, partial curve, poor fit] |  |
| CCOC(=O)c1cccc(NC(=O)CCc2nnc3ccc(N4CCN(C)CC4)nn23)c1 | 21.4 | 1.64 µM [rising, partial curve] |  |
| CCOC(=O)c1c(NC(=O)CNCC(O)CO)sc(C)c1C (stereo not given) | -1.52 | 29.1 µM [rising, single point] |  |
| O=C1Nc2ccccc2OC1CC(=O)N1CCN(c2cccc(C(F)(F)F)c2)CC1 (stereo not given) | -3.21 |  |  |
| COc1ccc2c(c1)[nH]c1c(=O)n(/N=C/C3C(C)C=C(C)CC3C)c(=O)[nH]c12 (stereo not given) | -58.5 |  | 3.26 µM [falling, full curve] |
| Cc1cc(=O)nc2c3ccccc3n(CC(=O)NCCCN3CCOCC3)n12 | -39.5 |  | 0.146 µM [falling, full curve] |
| COC(=O)c1ccc(-n2nnnc2SCc2ccccc2OC)cc1 | -22.2 | 2.06 µM [falling, partial curve, poor fit] |  |
| CCCN1CCN(CCCNC(=O)C(CC)n2nc(C)n3c(cc4occc43)c2=O)CC1 (stereo not given) | 8.78 | 29.1 µM [rising, single point] |  |
| CCOC(=O)c1nn(-c2cccc(OC)c2)c(-c2ccccc2)c1C(=O)c1ccccc1 | -2.01 | 29.1 µM [rising, partial curve, poor fit] |  |
| COc1ccc(C)cc1NCc1ccc(OC)c(C)c1OC | -6.74 | 29.1 µM [falling, single point] |  |
| Nc1ccc(Oc2ccc3c(c2)C(=O)NC3=O)cc1 | -9.85 |  |  |

By substructure: those above with a halogen

| Structure (SMILES) | cell number change [%] | AC50 [1] | AC50 [2] |
| --- | --- | --- | --- |
| COc1ccccc1CNC(=O)c1c(-c2ccccc2Cl)noc1C | 4.72 | 11.6 µM [falling, partial curve] |  |
| O=C1Nc2ccccc2OC1CC(=O)N1CCN(c2cccc(C(F)(F)F)c2)CC1 (stereo not given) | -3.21 |  |  |

(listing goes on)

| Structure (SMILES) | cell number change [%] | AC50 [1] | AC50 [2] |
| --- | --- | --- | --- |
| CCN(CC)S(=O)(=O)c1cccc(NC(=O)C2SC(=Nc3ccc(C)cc3C)C(C(=O)NCC3CCCO3)=C2N)c1 (stereo not given) | 29.5 | 6.51 µM [falling, single point] |  |
| O=C(COC(=O)c1ccc(O)cc1)NCc1ccc2c(c1)OCO2 | 32.7 |  |  |
| CS(=O)(=O)N(CCc1ccccc1)CC(=O)N1CCc2ccccc2C1 | -1.16 | 23.1 µM [rising, single point] |  |
| CSc1ccc(S(=O)(=O)N2CCC(C(=O)NCc3cccnc3)CC2)cc1 | -14.5 |  |  |
| CCN1CCN(Cc2nnc(-c3ccc(C)cc3)o2)CC1 | 9.93 | 29.1 µM [rising, single point] |  |
| Cc1ccc(SCC(=O)OCC(=O)NC(C)c2ccc(F)cc2)cc1 (stereo not given) | -4.54 | 0.651 µM [rising, full curve] |  |
| CC(=O)n1cc(/C=N/NC(=O)c2ccccc2Cl)c2ccccc21 | 3.34 | 6.51 µM [rising, single point] |  |
| COC(=O)c1cc(=O)c2cccc(OC)c2[nH]1 | -48.5 | 29.1 µM [falling, single point] | 29.1 µM [falling, single point] |
| O=C(O)COc1ccc(Br)cc1C(c1c(C(=O)O)[nH]c2ccccc12)c1c(C(=O)O)[nH]c2ccccc12 | -10.6 |  |  |
| O=C1C(=O)c2ccccc2C(O)=C1c1ccccc1F | -12.5 | 7.31 µM [falling, single point] |  |
| O=CN1CCN(C(C(=O)NC2CCCCC2)c2cc3c(cc2[N+](=O)[O-])OCO3)CC1 (stereo not given) |  | 2.31 µM [rising, partial curve] | 2.31 µM [rising, partial curve] |
| COc1ccc(S(=O)(=O)N2CCNC(=O)C2)cc1Br |  | 14.6 µM [rising, partial curve] |  |
| CCCn1nnnc1SCC(=O)N1CCCCC1 | -6.41 |  |  |
| COc1ccccc1NC(=O)c1c(Nc2ccccc2C)sc(C(=O)Nc2cccc(Cl)c2)c1N |  | 5.8 µM [falling, partial curve, poor fit] |  |
| COc1ccc(CCNc2nc(-c3cccc(NC(C)=O)c3)cs2)cc1OC | 108 |  |  |
| CC(/C=N/NC(=O)c1cccc([N+](=O)[O-])c1)=C\c1ccccc1 | 12.9 | 4.11 µM [rising, partial curve] | 4.11 µM [rising, single point] |
| Cc1ccc(NC(=O)CN2C(=O)NC3(CCc4ccccc43)C2=O)cc1S(=O)(=O)N1CCCCC1 (stereo not given) |  |  | 2.06 µM [rising, partial curve, poor fit] |
| O=C(CCSc1nnc2ccc3ccccc3n12)Nc1ccc(F)cc1 | 58.1 | 0.0651 µM [falling, full curve] | 29.1 µM [rising, single point] |
| CCN(Cc1ccncc1)Cc1c(O)ccc2ccccc12 |  | 0.58 µM [falling, single point] |  |
| C/C(=N\NC(N)=S)c1ccccc1 | 31.9 |  | 4.11 µM [rising, full curve, poor fit] |

| Structure (SMILES) | cell number change [%] | AC50 [1] | AC50 [2] |
| --- | --- | --- | --- |
| COc1ccc(CCNC(=O)c2cc(=O)c3cc(C)ccc3o2)cc1OC | 16.9 | 0.164 µM [falling, full curve, poor fit] |  |
| Cc1ccc([N+](=O)[O-])cc1NC(=O)C1CCN(S(C)(=O)=O)CC1 | -1.14 |  |  |
| Cc1ccc(NC(=O)CCc2nnc(SCC(=O)Nc3ccccc3C)n2C)cc1Cl | 50.9 |  |  |
| CC1CCCCN1Cc1cnc(Cl)s1 (stereo not given) | -41.6 | 0.82 µM [falling, full curve] | 1.03 µM [falling, full curve] |
| CCOC(=O)N1CCN(c2nc(-c3ccccc3)c3ccccc3n2)CC1 | 57 | 18.4 µM [rising, single point] | 16.4 µM [rising, single point] |
| CCOC(=O)c1ccc(NC(=O)CCc2nnc3ccc(N4CCCC4)nn23)cc1 | -28.7 | 13 µM [falling, partial curve] |  |
| CC1CCc2ccccc2N1CC(=O)Nc1cccc(S(=O)(=O)N2CCCC2)c1 (stereo not given) | 4.02 |  |  |
| CCc1nnc2sc(-c3ccc(NC(=O)c4ccc5c(c4)OCCO5)cc3)nn12 |  |  | 3.26 µM [rising, partial curve] |
| O=[N+]([O-])c1ccc2[nH]c3c(c2c1)CCCC3 | -1.17 | 0.00517 µM [falling, full curve, poor fit] | 6.51 µM [falling, single point] |
| Cc1c(Cl)cccc1NC(=O)CCCn1nc([N+](=O)[O-])cc1C | 49.7 |  | 11.6 µM [rising, partial curve, poor fit] |
| Cc1ccc2c(CN3CCN(S(=O)(=O)c4ccc5c(c4)OCCO5)CC3)cc(=O)oc2c1C | 31.7 |  | 0.00517 µM [rising, full curve, poor fit] |
| N#Cc1ccc(C23CC4CC(CC(C4)C2)C3)[nH]c1=O | 4.4 |  |  |
| O=C(CN1C(=O)c2ccccc2S1(=O)=O)NCCSC1CCCCC1 | -31.6 | 2.31 µM [falling, partial curve, poor fit] | 6.51 µM [falling, full curve, poor fit] |
| CCCC(=O)Nc1ccc(Cl)c(NC(=O)c2cccnc2)c1 | 58.4 | 29.1 µM [rising, single point] | 0.231 µM [rising, full curve] |
| O=C1N(CN2CCN(Cc3ccccc3)CC2)c2ccccc2C12OCCCO2 |  | 2.31 µM [falling, partial curve] |  |
| CCC1(c2ccccc2)NC(=O)N(C)C1=O (stereo not given) | -34.7 | 1.84 µM [falling, full curve] | 4.61 µM [falling, full curve] |
| CO/N=C/C(C#N)c1ncc(C(F)(F)F)cc1Cl (stereo not given) | -31.1 | 0.00517 µM [falling, full curve, poor fit] | 11.6 µM [falling, partial curve] |
| N=c1oc2ccc3ccccc3c2cc1-c1nnc2n1CCCCC2 | -0.982 | 0.92 µM [falling, full curve, poor fit] |  |
| Cc1ccccc1NS(=O)(=O)c1nnc(NC(=O)C(C)C)s1 | -11.3 |  |  |
| COc1ccc([C@H]2CC(=O)C=C(c3cccc(Cl)c3O)C2)cc1OC | 10.9 | 6.51 µM [falling, single point] | 5.8 µM [falling, single point] |

Quoted at random: 2 records from the list

| Structure (SMILES) | cell number change [%] | AC50 [1] | AC50 [2] |
| --- | --- | --- | --- |
| COc1ccc([C@H]2CC(=O)C=C(c3cccc(Cl)c3O)C2)cc1OC | 10.9 | 6.51 µM [falling, single point] | 5.8 µM [falling, single point] |
| Cc1ccc2c(CN3CCN(S(=O)(=O)c4ccc5c(c4)OCCO5)CC3)cc(=O)oc2c1C | 31.7 |  | 0.00517 µM [rising, full curve, poor fit] |

Reference: PubChem BioAssay AID2685 (National Center for Advancing Translational Sciences (NCATS), 2010)
